Source: patent US20120015352A1, “METHOD OF DETERMINING SENSITIVITY OF HUMAN OR NON-HUMAN ANIMAL CELLS TO AN IAP ANTAGONIST” (Otto-von-Guericke-Universitat Magdeburg, priority 2009, published 2012)
No constants are given. Whether binding was seen depends on the method and setting. Some entries that bind do so weakly or less than the wild type.

The chains behind the UniProt entries cited, without tags or fusion partners. Residues count along the entry.
UniProt P25445, residues 26-335: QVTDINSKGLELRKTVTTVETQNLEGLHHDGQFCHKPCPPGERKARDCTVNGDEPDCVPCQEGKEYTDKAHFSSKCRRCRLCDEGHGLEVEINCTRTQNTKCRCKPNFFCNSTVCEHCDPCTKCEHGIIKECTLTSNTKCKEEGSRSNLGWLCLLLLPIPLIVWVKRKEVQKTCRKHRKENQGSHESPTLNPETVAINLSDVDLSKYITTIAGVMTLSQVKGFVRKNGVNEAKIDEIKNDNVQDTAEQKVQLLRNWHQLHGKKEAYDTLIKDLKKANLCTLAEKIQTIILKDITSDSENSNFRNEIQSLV
UniProt Q13546, residues 325-671: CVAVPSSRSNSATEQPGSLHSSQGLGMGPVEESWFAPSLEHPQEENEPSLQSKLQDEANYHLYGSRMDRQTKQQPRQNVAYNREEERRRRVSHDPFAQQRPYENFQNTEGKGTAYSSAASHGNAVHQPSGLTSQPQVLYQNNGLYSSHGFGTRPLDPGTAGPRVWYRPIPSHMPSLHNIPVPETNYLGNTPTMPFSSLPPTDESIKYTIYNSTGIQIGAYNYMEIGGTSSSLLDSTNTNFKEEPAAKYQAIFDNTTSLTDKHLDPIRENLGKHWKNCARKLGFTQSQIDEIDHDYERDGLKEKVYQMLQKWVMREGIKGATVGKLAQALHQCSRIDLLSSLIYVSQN
UniProt P48023, residues 139-281: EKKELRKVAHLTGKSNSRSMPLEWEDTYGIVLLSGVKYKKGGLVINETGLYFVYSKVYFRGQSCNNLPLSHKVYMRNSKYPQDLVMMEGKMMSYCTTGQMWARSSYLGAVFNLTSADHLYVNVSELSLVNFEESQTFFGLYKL

Assays:
[1] = target: CD95 (human) (UniProt P25445); test: CD95L-Fc ligand affinity precipitation of the DISC, Western blot (data not shown)
[2] = target: CD95 (human) (UniProt P25445); test: ligand affinity precipitation from HaCaT cells, Western blot for CD95
[3] = target: CD95 (human) (UniProt P25445); test: ligand affinity precipitation from MET1 and A5-RT3 cells, Western blot for CD95

binding [1] | binding [2] | binding [3] | Substance
binds | – | – | DD-containing fragment of RIP1 (from UniProt Q13546 325-671)
– | binds | binds | CD95L-Fc (from UniProt P48023 139-281) (Fc fusion)
